Experimental data from patent US20160297889A1 (TORAY INDUSTRIES, published 2016).
Substitutions are numbered along the chain they refer to. Results are given in words; binding and its absence hold for the method and conditions named. Some results given as binding are weak or reduced against the parent protein; the word gives no strength.

T1: human CAPRIN-1 protein (human) (UniProt Q14444)
T1 sequence (looked up): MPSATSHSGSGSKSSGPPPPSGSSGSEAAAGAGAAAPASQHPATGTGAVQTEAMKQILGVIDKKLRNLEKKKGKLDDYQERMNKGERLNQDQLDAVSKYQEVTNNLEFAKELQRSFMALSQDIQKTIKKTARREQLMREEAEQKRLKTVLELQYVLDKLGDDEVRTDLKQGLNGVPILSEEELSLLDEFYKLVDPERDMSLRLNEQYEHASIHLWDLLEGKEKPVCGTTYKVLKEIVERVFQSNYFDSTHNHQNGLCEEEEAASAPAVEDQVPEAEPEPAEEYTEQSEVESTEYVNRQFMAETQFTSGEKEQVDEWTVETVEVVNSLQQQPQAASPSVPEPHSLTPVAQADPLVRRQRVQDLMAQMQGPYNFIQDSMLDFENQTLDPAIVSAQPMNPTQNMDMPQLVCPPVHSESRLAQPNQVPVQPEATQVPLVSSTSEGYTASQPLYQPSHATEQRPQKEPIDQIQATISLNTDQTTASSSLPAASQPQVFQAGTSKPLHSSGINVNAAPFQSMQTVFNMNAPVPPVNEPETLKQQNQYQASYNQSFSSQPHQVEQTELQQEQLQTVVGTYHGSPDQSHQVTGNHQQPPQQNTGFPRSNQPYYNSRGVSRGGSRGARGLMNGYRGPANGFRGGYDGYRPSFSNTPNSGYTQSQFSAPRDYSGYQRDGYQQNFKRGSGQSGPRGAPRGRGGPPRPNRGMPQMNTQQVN

T2: CAPRIN-1 protein expressed on the membrane surface of human cancer cells (human) (UniProt Q14444)
T2 sequence (looked up): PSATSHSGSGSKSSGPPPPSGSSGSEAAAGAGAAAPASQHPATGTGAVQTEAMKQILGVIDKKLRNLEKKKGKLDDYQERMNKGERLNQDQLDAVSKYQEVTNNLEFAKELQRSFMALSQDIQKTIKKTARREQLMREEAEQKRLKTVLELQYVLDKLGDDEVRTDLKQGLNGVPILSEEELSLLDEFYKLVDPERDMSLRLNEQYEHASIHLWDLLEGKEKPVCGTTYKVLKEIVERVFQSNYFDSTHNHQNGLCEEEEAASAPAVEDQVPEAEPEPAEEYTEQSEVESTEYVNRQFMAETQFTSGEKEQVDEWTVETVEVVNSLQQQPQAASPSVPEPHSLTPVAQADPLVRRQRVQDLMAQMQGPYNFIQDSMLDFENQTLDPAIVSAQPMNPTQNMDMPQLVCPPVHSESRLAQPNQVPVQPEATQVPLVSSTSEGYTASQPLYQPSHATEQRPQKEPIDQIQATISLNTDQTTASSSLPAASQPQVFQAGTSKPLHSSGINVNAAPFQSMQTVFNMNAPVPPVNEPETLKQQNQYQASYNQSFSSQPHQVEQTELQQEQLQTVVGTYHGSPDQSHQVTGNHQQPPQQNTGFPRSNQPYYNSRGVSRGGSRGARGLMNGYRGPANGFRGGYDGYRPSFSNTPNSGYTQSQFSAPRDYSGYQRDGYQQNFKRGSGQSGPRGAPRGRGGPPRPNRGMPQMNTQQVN

B1: humanized antibody #8 (antibody, V domains shown)
VH: QSLVESGGGLVQPGGSLRLSCAASGFSLSSHSLGWVRQAPGKGLEWIGDIRSGGSAYYANWAKGRFTISRTSSKNTVYLQMNSLRAEDTAVYFCTRTNGPSDLTNRLDLWGQGTLVTVSS
VL: QVLTQSPSSLSASVGDRVTINCQASQSLYNNENLAWFQQKPGKVPKRLIYGASTLASGVSSRFSGSGSGTEFTLTISSLQCEDFAIYYCLGEFSCGSADCFAFGGGTKVEIK
B2: human-rabbit chimeric anti-CAPRIN-1 antibody (antibody, V domains shown)
VH: QSLEESGGRLVTPGTPLTLTCTASGFSLSSHSLGWVRQAPGKGLEWIGDIRSGGSAYYANWAKGRFTISRTSTTVALKMTSLTTEDTATYFCTRTNGPSDLTNRLDLWGQGTLVTVSS
VL: QVLTQTPSSVSAAVGGTVTINCQASQSLYNNENLAWFQQKPGQPPKRLIYGASTLASGVSSRFKGSGSGTQFTLTIGDVQCDDAAIYYCLGEFSCGSADCFAFGGGTEVVVK
B3: humanized antibody #2 (antibody, V domains shown)
VH: EVQLVESGGGLVQPGGSLRLSCAASGFSLSSHSLGWVRQAPGKGLEWIGDIRSGGSAYYANWAKGRFTISRDNSKNTLYLQMNSLRAEDTAVYYCTRTNGPSDLTNRLDLWGQGTLVTVSS
VL: EIVLTQSPSSLSASVGDRVTINCQASQSLYNNENLAWFQQKPGKVPKRLIYGASTLASGVSSRFSGSGSGTEFTLTISNLQPEDFATYYCLGEFSCGSADCFAFGGGTKVEIK
B4: humanized antibody #7 (antibody, V domains shown)
VH: B3 VH
VL: B1 VL
B5: humanized antibody #0 (antibody, V domains shown)
VH: B3 VH with Y94F
VL: B3 VL with E1A, V3Q, L4M, V45A, E72D, N79S, T87I
B6: humanized antibody #9 (antibody, V domains shown)
VH: B3 VH with V2Q, Q3S
VL: B3 VL with E1D, N79S, P82C, T87I
B7: humanized antibody #10 (antibody, V domains shown)
VH: B3 VH with V2Q, Q3S
VL: B1 VL
B8: humanized antibody #4 (antibody, V domains shown)
VH: B3 VH with Y94F
VL: B3 VL
B9: humanized antibody #3 (antibody, V domains shown)
VH: B3 VH
VL: B3 VL with I2Q, T87I
B10: humanized antibody #1 (antibody, V domains shown)
VH: B3 VH
VL: B3 VL with E1A, V3Q, L4M, V45A, E72D, N79S, T87I
B11: humanized antibody #6 (antibody, V domains shown)
VH: B3 VH with Y94F
VL: B1 VL
B12: humanized antibody #5 (antibody, V domains shown)
VH: B3 VH with Y94F
VL: B3 VL with I2Q, T87I
B13: rabbit anti-CAPRIN-1 monoclonal antibody (antibody, V domains shown)
VH: B2 VH
VL: B2 VL

target: T1, human CAPRIN-1 protein (human); assay: ELISA, CAPRIN-1 protein coated at 5 ug/mL, antibody 1 ug/mL

binding	Binder
binds	B1
binds	B2
binds	B3
binds	B4
binds	B5
binds	B6
binds	B7
binds	B8
binds	B9
binds	B10
binds	B11
binds	B12

target: T2, CAPRIN-1 protein expressed on the membrane surface of human cancer cells (human); assay: flow cytometry, QG56 and BT-474 cells, hybridoma supernatant

binding	Binder
binds	B13

target: T1, human CAPRIN-1 protein (human); assay: ELISA, CAPRIN-1 protein coated at 1 ug/mL, hybridoma supernatant

binding	Binder
binds	B13

target: T2, CAPRIN-1 protein expressed on the membrane surface of human cancer cells (human); assay: flow cytometry, 28 human cancer cell lines, antibody 50 ug/mL

binding	Binder
binds	B1
binds	B2
binds	B3
binds	B4
binds	B5
binds	B6
binds	B7
binds	B8
binds	B9
binds	B10
binds	B11
binds	B12

target: T2, CAPRIN-1 protein expressed on the membrane surface of human cancer cells (human); assay: flow cytometry, 28 human cancer cell lines, hybridoma supernatant

binding	Binder
binds	B13
